Source: publication PMC5610320
These are yes or no findings as the source states them, for the method shown. In cells and extracts the contact can be indirect. Some entries that bind do so weakly or less than the wild type. Tags and fused reporters may be left off the sequences shown.

How the values were obtained:
[1] = target: T1, glutathione S-transferase (GST)-fused CIB1 (human) (UniProt Q99828); assay: pull-down; GST-CIB1 immobilised on glutathione-agarose beads; 35S-labelled in vitro translated ASK1 variants incubated for 4 h at 4 °C in a binding buffer; SDS-PAGE and autoradiography; only the target purified
T1 sequence: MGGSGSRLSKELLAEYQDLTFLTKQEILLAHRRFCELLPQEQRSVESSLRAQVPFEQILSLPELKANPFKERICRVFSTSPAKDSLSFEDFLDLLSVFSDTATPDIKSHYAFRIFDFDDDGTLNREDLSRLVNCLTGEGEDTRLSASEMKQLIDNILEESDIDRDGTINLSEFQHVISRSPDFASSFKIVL

Myc-ASK1 = Myc-ASK1 (UniProt Q99683); assay: co-IP; transfected SH-SY5Y cells with or without ectopically expressed CIB1 (Fig. S4; its legend was not shown, the method is taken from the paper's co-immunoprecipitation methods)

B1: ASK1 (378-648) (domain or fragment, UniProt Q99683 378-648)
chain: MVQSEGQVASDMYCLVGRIYKDMFLDSNFTDTESRDHGASWFKKAFESEPTLQSGINYAVLLLAAGHQFESSFELRKVGVKLSSLLGKKGNLEKLQSYWEVGFFLGASVLANDHMRVIQASEKLFKLKTPAWYLKSIVETILIYKHFVKLTTEQPVAKQELVDFWMDFLVEATKTDVTVVRFPVLILEPTKIYQPSYLSINNEVEEKTISIWHVLPDDKKGIHEWNFSASSVRGVSISKFEERCCFLYVLHNSDDFQIYFCTELHCKKFFE
modifications: 35S-methionine label
- binding [1]: binds

B2: Flag epitope-tagged CIB1 (Flag-CIB1) (protein, UniProt Q99828 1-191)
chain: T1 sequence
- binding (Myc-ASK1): binds
